This data set can be described thus: peptide made by a vendor. The settings on record: whole synthesis, reversed-phase HPLC.

Some peptides are written in HELM: one residue between dots, names in brackets for other building blocks, links after the first $.

Take PEPTIDE1{R.W.R.W.R.W.[am]}$$$$V2.0: the “final HPLC purity” value worked out at 99.15%.

Consider “PEPTIDE1{W.R.L.W.R.L.W.R.L.[am]}$$$$V2.0”, for which the “final HPLC purity” value is reported as 95.59%.

As to “PEPTIDE1{W.R.L.R.W.R.L.R.W.R.L.R.[am]}$$$$V2.0”, the “final HPLC purity” value was 99.40%.

For “PEPTIDE1{W.K.V.W.K.V.W.K.V.[am]}$$$$V2.0”, the “final HPLC purity” value is 99.22%.

Regarding PEPTIDE1{K.W.K.W.K.W.[am]}$$$$V2.0, the “final HPLC purity” value is 95.98%.

Turning to “PEPTIDE1{[ac].W.K.V.K.W.K.V.K.W.K.V.K.[am]}$$$$V2.0”, the “final HPLC purity” value turned out to be 95.27%.

PEPTIDE1{W.R.W.R.W.R.[am]}$$$$V2.0: the “final HPLC purity” value is on record as 95.31%.

Turning to “PEPTIDE1{[ac].W.R.L.R.W.K.T.R.W.R.L.K.[am]}$$$$V2.0”, the “final HPLC purity” value was 98.79%.

With PEPTIDE1{W.K.W.K.W.K.[am]}$$$$V2.0, the “final HPLC purity” value is 98.83%.

The values above are taken from publication PMC7564829 (Microorganisms, 2020).
